Measured values as given in article PMC6090974.
Results are given in words; binding and its absence hold for the method and conditions named. Binding seen in cells or lysates may run through a third protein. For some assays here: Binding can be weak; no strength is given.

Key:
Assay in all cases: co-IP; HEK293T with ectopic overexpression of Flag-TRPS1 or its truncation mutants (N, ΔC, C, ΔN, GATA); blots for HDAC2 and USP4
Flag-TRPS1-C(2941–3885) = biological target: Flag-TRPS1-C(2941–3885)
Flag-TRPS1-ΔC(1–2940) = biological target: Flag-TRPS1-ΔC(1–2940)
Flag-TRPS1-ΔN(2641–3885) = biological target: Flag-TRPS1-ΔN(2641–3885)
[1] = biological target: Flag-TRPS1-GATA(2641–2940)
Flag-TRPS1-N(1–2640) = biological target: Flag-TRPS1-N(1–2640)

binding (Flag-TRPS1-C(2941–3885)): no binding
binding (Flag-TRPS1-ΔC(1–2940)): binds
binding (Flag-TRPS1-ΔN(2641–3885)): binds
binding [1]: no binding
binding (Flag-TRPS1-N(1–2640)): no binding
B1: USP4 in HEK293T cells of the TRPS1 truncation co-IP (enzyme, UniProt Q13107 1-963)
chain: MAEGGGCRERPDAETQKSELGPLMRTTLQRGAQWYLIDSRWFKQWKKYVGFDSWDMYNVGEHNLFPGPIDNSGLFSDPESQTLKEHLIDELDYVLVPTEAWNKLLNWYGCVEGQQPIVRKVVEHGLFVKHCKVEVYLLELKLCENSDPTNVLSCHFSKADTIATIEKEMRKLFNIPAERETRLWNKYMSNTYEQLSKLDNTVQDAGLYQGQVLVIEPQNEDGTWPRQTLQSKSSTAPSRNFTTSPKSSASPYSSVSASLIANGDSTSTCGMHSSGVSRGGSGFSASYNCQEPPSSHIQPGLCGLGNLGNTCFMNSALQCLSNTAPLTDYFLKDEYEAEINRDNPLGMKGEIAEAYAELIKQMWSGRDAHVAPRMFKTQVGRFAPQFSGYQQQDSQELLAFLLDGLHEDLNRVKKKPYLELKDANGRPDAVVAKEAWENHRLRNDSVIVDTFHGLFKSTLVCPECAKVSVTFDPFCYLTLPLPLKKDRVMEVFLVPADPHCRPTQYRVTVPLMGAVSDLCEALSRLSGIAAENMVVADVYNHRFHKIFQMDEGLNHIMPRDDIFVYEVCSTSVDGSECVTLPVYFRERKSRPSSTSSASALYGQPLLLSVPKHKLTLESLYQAVCDRISRYVKQPLPDEFGSSPLEPGACNGSRNSCEGEDEEEMEHQEEGKEQLSETEGSGEDEPGNDPSETTQKKIKGQPCPKRLFTFSLVNSYGTADINSLAADGKLLKLNSRSTLAMDWDSETRRLYYDEQESEAYEKHVSMLQPQKKKKTTVALRDCIELFTTMETLGEHDPWYCPNCKKHQQATKKFDLWSLPKILVVHLKRFSYNRYWRDKLDTVVEFPIRGLNMSEFVCNLSARPYVYDLIAVSNHYGAMGVGHYTAYAKNKLNGKWYYFDDSNVSLASEDQIVTKAAYVLFYQRRDDEFYKTPSLSSSGSSDGGTRPSSSQQGFGDDEACSMDTN
